Patent US20230121511A1
Results are given in words; binding and its absence hold for the method and conditions named. Some entries that bind do so weakly or less than the wild type.

What was measured:
IgG1_001 = assay: SPR (Biacore T200, 37 C), tool antibody captured on mouse anti-human Fc
DualAE05-SG1201 = assay: as above

binding (IgG1_001): binds | binding (DualAE05-SG1201): binds
B1: FAB0133hh (antibody, V domains shown)
VH: QSLEESGGRLVTPGTPLTLTCTASGFSLSTYYMNWVRQAPGKGLEWIGTITIDGTAYYASWAKGRFTISRTSTTVDLKAASPTTEDTATYFCARYDGDIWGPGTLVTVSS
VL: DVVMTQTPASVSEPVGGTVTIKCQASQSISTALAWYQQKPGQPPKLLIHGASILESGVPSRFKGSGSGTEFTLTISDLECADVATYYCQCTYYGISYGNAFGGGTKVEIK
